According to US5760214A, “Bone resorption inhibition/osteogenesis promotion compound” (Iskra Industry Co., Ltd., priority 1993, dated 1998):
At least one compound was matched to its structure with a doubt left.

How the values were obtained:
[1] = test system: marrow cells originating from the thighbones of Whister rats; test: Osteogenesis Experiment 2 (Experiment 4), von Kossa dyeing; format: cell-based; parameters: key: →: Transverse arrow indicates that osteogenesis did not exist; .uparw.: upward arrow indicates promotion of osteogenesis; details: calcification period
[2] = test system: osteoblast originating from the calvaria of Whister rats; test: Osteogenesis Test (1) (Experiment 3), von Kossa dyeing; format: cell-based; parameters: key: →: Transverse arrow indicates that osteogenesis did not exist; .uparw.: upward arrow indicates promotion of osteogenesis; details: for Osteogenesis promotion function, calcification period: addition in calcification period; for Osteogenesis promotion function, propagation period: addition in propagation period
Protocol: A first generation incubation system of the osteoblast originating from the calvaria of Whister rats (female, 6-months' age) was used as the test cells. After the start of incubation, the sample drug (compound 1-3) was added once a day to the medium in a dose of 10^-6 M, 10^-8 M or 10^-9 M on the second and third days (propagation period). Alternatively, the compound 1-3 in the amount described above was added once a day to the medium for 4 days (calcification period) from the seventh day from the start of incubation. On the fourteenth day from the start of incubation, the cells were subjected to von Kossa dyeing and detection of phosphates was carried out. The area of the bone knots which were dyed to brown was confirmed by the naked eye and was used as the index for osteogenesis.

## CN(C)C1C(=O)C(C(=O)NCN2CCN(CCOc3ccc4c(c3)CCC3C4CCC4(C)C(=O)CCC34)CC2)=C(O)C2(O)C(=O)C3=C(O)c4c(O)cccc4C(C)(O)C3CC12 (stereo not shown) [Compound 1-3, N-4-[17-oxy-estra-1,3,5 (10)-trien-3-oxyethyl]-piperazine-1-methylene-tetracycline]
[1]; 10^-6 M
  Osteogenesis promotion: →
[1]; 10^-8 M
  Osteogenesis promotion: .uparw.
[2]; 10^-6 M
  Osteogenesis promotion function, calcification period: .uparw.
  Osteogenesis promotion function, propagation period: →
[2]; 10^-8 M
  Osteogenesis promotion function, propagation period: →
[2]; 10^-9 M
  Osteogenesis promotion function, calcification period: .uparw.
  Osteogenesis promotion function, propagation period: →
